# Results reported in PubChem BioAssay AID2417 (National Center for Advancing Translational Sciences (NCATS), 2010).
# Screen size: about 140,000 compounds; about 4,300 (3.1%) were called active. Inconclusive results, whose numbers are uncertain, are shown with a selection of clear calls.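 The calls were made as follows: active = readout at or below -70, meaning at least 70% loss of cells showing the perinucleolar compartment, a nuclear body marking cancer cells; inconclusive = readout between -30 and a set limit; inactive = the rest.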
# Assay: High Content Assay for Compounds that inhibit the Assembly of the Perinucleolar Compartment;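 also: plate controls were DMSO wells for no effect and camptothecin positive control wells for full effect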
# Settings: PC3M PTB-GFP, PNC prevalence imaging, 16 h; at 10 µM; active compounds read low
# Outline: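 Read-out is percentage of cells bearing a perinucleolar compartment, from automated 20x imaging of fixed, Hoechst-stained PC3M PTB-GFP cells. Cells were seeded 4 h, then exposed 16 h to compound (23 nl of library stock) in duplicate plates.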
row,SMILES,"activity change (PNC), negative = inhibition"
1,CCCCC(CC)CNC(=O)C1C2C=CC(C2)C1C(=O)O (stereo unspecified),inconclusive: -36.1%
2,CCOC(=O)C1=C(c2ccccc2)N(C)C(=O)NC1c1ccc(O)c(OC)c1 (stereo unspecified),inconclusive: -65.5%
3,CCc1nc(SCc2cccnc2)c(C#N)cc1C,inconclusive: -57.1%
4,CC1(C)CC(=O)C2=C(C1)OC1=C(C(=O)CC(C)(C)C1)C2c1ccccc1,inactive: 11.1%
5,Cc1cc(/C=C2/NC(=O)NC2=O)c(C)n1-c1cccnc1,inconclusive: -79.3%
6,Cn1c(=O)c2ncn(CC(=O)NC3CCCCCC3)c2n(C)c1=O,inconclusive: -36.4%
7,CC(=O)Nc1nc(-c2ccc(Cl)cc2)ns1,inactive: 47.3%
8,O=C(Nc1ccc2c(c1)OCCO2)c1ccccc1F,inactive: -29.6%
9,COC(=O)C1C2CCC(C2)C1C(=O)OCC(=O)c1ccc(C)cc1 (stereo unspecified),inconclusive: -49.3%
10,COc1ccc(CNC(=O)C2COc3ccccc3O2)cc1 (stereo unspecified),active: -100%
11,Cc1ccc(C(C)C)c(Oc2nnnn2-c2ccccc2)c1,inconclusive: -54.3%
12,Cc1ccc(CN2CCN(/N=C/c3cc([N+](=O)[O-])ccc3Cl)CC2)cc1,inactive: 2.47%
13,COc1ccc(NS(=O)(=O)c2ccc(NC(=O)c3ccc(N(C)S(C)(=O)=O)cc3)cc2)cc1,inconclusive: -39.1%
14,c1cnc(Oc2ccc3oc4ccccc4c3c2)nc1,inconclusive: -32.1%
15,CCCCNC(=O)CCn1nc(-c2ccccc2)ccc1=O,inconclusive: -55.1%
16,COc1ccc(CN(C(=O)c2ccc3c(c2)OCCO3)C(C(=O)NC2CCCCC2)c2ccc3ncccc3c2)cc1 (stereo unspecified),inactive: 83.4%
17,CCN(CC)CCCNC(=O)c1[nH]c(C)c(C(=O)NC2CCCCC2)c1C,inconclusive: -71.9%
18,CCSc1nc(C)cc(C)c1S(=O)(=O)c1ccccc1C,inconclusive: -68%
19,O=C(COc1ccc2ccccc2c1)NCCc1ccc2c(c1)OCCO2,inconclusive: -33.1%
20,c1ccc(-n2nnnc2SCc2cccc3nsnc23)cc1,inactive: -9.83%
21,COc1ccc(C)cc1Nc1cc(C)nc2ncnn12,inconclusive: -77.1%
22,O=C(CN1CCCCC1)NCCNC(=O)CN1CCCCC1,inconclusive: -52.8%
23,Cc1ccc(-n2nc3c(n2)/C(=N/O)CC/C3=N\O)cc1,active: -100%

row,SMILES,"activity change (PNC), negative = inhibition"
1,Cc1ccc([N+](=O)[O-])cc1S(=O)(=O)N(C(=O)c1ccncc1)c1ccc2oc3c(c2c1)CCCC3,inactive: 60.8%
2,C/C(=N/NC(=S)Nc1ccccc1)c1ccc2c(c1)OCO2,inconclusive: -36%
3,COc1cc(OC)cc(C(=O)n2nc(C)cc2C)c1,inconclusive: -58.5%
4,Cc1ccc2c(c1)C1CN(C)CCC1N2C(=O)Nc1ccc(Cl)cc1 (stereo unspecified),inconclusive: -52.7%
5,Oc1ccc(Cl)cc1-c1cc(-c2ccco2)[nH]n1,inactive: 70.6%
6,O=C(CN1CCSC1=NCc1ccccc1)c1ccc(Cl)cc1,inactive: 3.43%
7,CCc1ccc(/C=N/n2c(C)cc(C)c(C#N)c2=O)cc1,inactive: -7.89%
8,Cc1ccc(-c2cc3ccccc3nc2N2CCCC2)cc1,inconclusive: -68.2%
9,Cc1c(C(=O)NCc2ccco2)cccc1[N+](=O)[O-],inconclusive: -79.4%
10,COc1ccc(-n2ncc3c(=O)n(CC(=O)N4CCCc5ccccc54)cnc32)cc1,inactive: -10.3%
11,COc1ccc(NC(=O)C23CCC(C)(C(=O)O2)C3(C)C)cc1 (stereo unspecified),inconclusive: -47.9%
12,Nc1ccc2nc(-c3ccccc3)sc2c1,inconclusive: -49.9%
13,Nc1c(C(=O)c2ccc(Cl)cc2)oc2ccccc12,inactive: 54.3%
14,CS(=O)(=O)N(CCc1ccccc1)CC(=O)N1CCN(c2ccccc2F)CC1,inconclusive: -49.7%
15,Cc1csc2nc(=O)c3ccccc3n12,inconclusive: -57.8%
16,Fc1ccc(-c2[nH]ncc2-c2nnnn2-c2ccccc2)c(F)c1,inconclusive: -32.8%
17,O=C(NC1CCCC1)C(c1ccccn1)N(C(=O)c1csnn1)C1CC1 (stereo unspecified),inconclusive: -34%
18,O=C(CSc1ncc(-c2ccccc2)n1C1CCCC1)N1CCc2ccccc21,inactive: 12.9%
19,CCc1cc(C=C(Cl)Cl)oc(=O)c1C,inconclusive: -43.8%
20,C=CCOC(=O)C1=C(C)NC(=O)NC1/C=C/c1ccccc1OC (stereo unspecified),inconclusive: -72.1%
21,O=C(Nc1cccnc1)c1ccc2c(c1)C(=O)N(Cc1cccnc1)C2=O,inactive: -29.4%
22,COc1ccc(C2c3c(oc4c(C)cc(C)cc4c3=O)C(=O)N2Cc2cccnc2)cc1OC (stereo unspecified),inconclusive: -30.2%
23,O=C(CCN1CCN(c2ccccc2F)CC1)c1ccc(Br)cc1,inconclusive: -30.5%

row,SMILES,"activity change (PNC), negative = inhibition"
1,O=C(N/C(=C/c1cccc(Br)c1)c1nc(=S)[nH][nH]1)c1ccccc1,inconclusive: -39.8%
2,Cc1n[nH]c(C)c1S(=O)(=O)N1CCN(c2ccccn2)CC1,inconclusive: -31.7%
3,COc1ccc(N2CCN(c3nc(Nc4ccc(F)cc4)nc(OC)n3)CC2)cc1,inactive: 16.3%
4,Cc1ccc(C(C)NC(=O)Cn2nc(C)c([N+](=O)[O-])c2C)cc1 (stereo unspecified),inactive: 1.18%
5,C=CCNC(=S)NNC(=O)c1ccc(OCCCC)cc1,active: -122%
6,Cn1c(SCc2nnc(-c3ccccc3Br)o2)nc2sc3c(c2c1=O)CCC3,inactive: -29.6%
7,CCc1ccc(C2=NN(C(=O)OC)C(O)(C(F)(F)F)C2)cc1 (stereo unspecified),inconclusive: -32.1%
8,N#C/C(=C\c1ccc(OC(=O)c2ccc(Cl)s2)cc1)c1nc2ccccc2[nH]1,inactive: 70.2%
9,CCOc1cc(NC(=O)c2ccco2)c(OCC)cc1NC(=O)CCc1ccccc1OC,inconclusive: -46.7%
10,CCOC(=O)c1c(NC(=O)COC(=O)CNC(=O)c2ccco2)sc(C)c1C,inconclusive: -39.9%
11,CCCCC(=O)NC1(C(F)(F)F)C(=O)Nc2c1c(=O)n(C)c(=O)n2C (stereo unspecified),inconclusive: -56.2%
12,NS(=O)(=O)c1cccc(NC(=O)CCSc2ccc(Cl)cc2)c1,inactive: 20.5%
13,CCN(CC)CCNc1nc2c(c(=O)n(C)c(=O)n2C)n1C/C=C(/C)Cl,inconclusive: -48.6%
14,Cc1c(C(=O)COC(C)(C)C)[nH]c2ccccc12,inconclusive: -47.9%
15,CCC1=NN(C(=O)C(=O)NCCc2ccccc2)C(O)(C(F)(F)F)C1 (stereo unspecified),inconclusive: -57.1%
16,COc1ccc(Cl)cc1NC(=O)CNc1ccccc1F,inactive: -22.5%
17,O=C(NNS(=O)(=O)c1ccccc1)C1CCN(S(=O)(=O)c2ccc(Cl)cc2)CC1,active: -100%
18,CCOC(=O)CN1C(=O)C(O)=C(C(C)=O)C1c1ccc(F)cc1 (stereo unspecified),inactive: 21.3%
19,Cc1[nH]c(=O)[nH]c(=O)c1S(=O)(=O)N1CCCC(C(=O)NCCc2ccccc2)C1 (stereo unspecified),inconclusive: -39.3%
20,CC(C)OCCCn1c(=NC(=O)c2ccncc2)c(C#N)cc2c(=O)n3ccccc3nc21,inconclusive: -49.3%
21,O=C1CC(N2CCOCC2)C(=O)N1c1cc(Cl)cc(Cl)c1 (stereo unspecified),inconclusive: -54.1%
22,Cc1ccc(C)c(C(=O)n2cnnc2N)c1,inconclusive: -47.1%
23,O=C(c1nc2nc(-c3cccs3)cc(C(F)(F)F)n2n1)N1CCN(Cc2ccccc2)CC1,inactive: -3.68%

row,SMILES,"activity change (PNC), negative = inhibition"
1,CC(=O)N(Cc1ccco1)C1(C(=O)NC2CCCCC2)CCCCC1,inconclusive: -41.1%
2,CCC(=O)N1C(=O)CCN(C(C)=O)c2ccccc21,active: -93.7%
3,Cn1c(SCC(=O)Nc2cccc(F)c2)nnc1-c1cc2ccccc2o1,inconclusive: -49.3%
4,Cc1ccc(NC(=O)c2ccc(C(C)(C)C)cc2)cc1[N+](=O)[O-],inactive: 16%
5,COCCn1c(SCC(=O)Nc2ccccc2C)nc2c(oc3ccccc32)c1=O,inactive: 4.1%
6,C=CCn1c2ccccc2n2nc(C)c(=O)nc12,active: -100%
7,COc1ccccc1NC(=O)CCCc1c[nH]c2ccccc12,inactive: -4.48%
8,O=C(NCc1ccccc1)c1cccc(COc2ccc3c(c2)CCC3)c1,inconclusive: -39.3%
9,CCCC(=O)Nc1cccc(NC(=O)c2ccccc2Br)c1,inactive: -11.2%
10,COC(=O)c1cccc(C(=O)Nc2ccc(C)cc2)n1,inconclusive: -31.4%
11,CCCN(CCC)CCNC(=O)C1c2ccccc2C(=O)N(CCOC)C1c1ccc(F)cc1 (stereo unspecified),inconclusive: -48.7%
12,Cc1cc(SCC(N)=O)nc(SCC(=O)c2ccccc2)n1,inconclusive: -34.7%
13,COc1cc(C)nc(N2CCCC(C(=O)Nc3cccc(Cl)c3C)C2)n1 (stereo unspecified),active: -124%
14,Cc1cc(NC(=O)c2cccc(S(=O)(=O)N3CC(c4ccccc4)CC3=O)c2)no1 (stereo unspecified),inconclusive: -71.6%
15,CC(NC(=O)CCSCCC(=O)NC(C)c1ccccc1)c1ccccc1 (stereo unspecified),inconclusive: -36.6%
16,CS(=O)(=O)N(Cc1ccc(C(=O)NCCSc2ccccn2)cc1)c1ccccc1,inconclusive: -52%
17,COCCCNC(=O)c1c(NC(=O)c2cccs2)sc2c1CCCC2,inconclusive: -33.5%
18,COc1ccc(Cn2nnnc2CN(Cc2cc3cc(C)ccc3[nH]c2=O)C2CCCC2)cc1,inconclusive: -31.1%
19,C=CCOC(=O)c1cc(-c2ccc(/C=C3\C(=O)NC(=O)C(C#N)=C3C)o2)ccc1Cl,inconclusive: -60.6%
20,COc1ccccc1-c1ccc(/C=C2/C=C(C)OC2=O)o1,active: -113%
21,CCOC(=O)N1CCC(N2CC34C=CC(O3)C(C(=O)O)C4C2=O)CC1 (stereo unspecified),active: -108%
22,CCN1CCN(c2ccc([N+](=O)[O-])c(Sc3nc4ccccc4[nH]3)c2)CC1,inconclusive: -34.6%

# Random excerpt: 2 entries already listed.
row,SMILES,"activity change (PNC), negative = inhibition"
7,COc1ccccc1NC(=O)CCCc1c[nH]c2ccccc12,inactive: -4.48%
3,Cn1c(SCC(=O)Nc2cccc(F)c2)nnc1-c1cc2ccccc2o1,inconclusive: -49.3%

# Grouped by structure, the compounds so far with a COOH group (2)
row,SMILES,"activity change (PNC), negative = inhibition"
1,CCCCC(CC)CNC(=O)C1C2C=CC(C2)C1C(=O)O (stereo unspecified),inconclusive: -36.1%
21,CCOC(=O)N1CCC(N2CC34C=CC(O3)C(C(=O)O)C4C2=O)CC1 (stereo unspecified),active: -108%
